According to PubChem BioAssay AID493014 (National Center for Advancing Translational Sciences (NCATS), 2011):
The list shows a part of the results. The main result of the screen is listed elsewhere. These columns were measured beside it and carry no call. The list favours compounds with an active or inconclusive main result. The note in brackets gives the kind of curve behind each potency; many fits are weak.

Assay: qHTS Assay to Find Inhibitors of Chronic Active B-Cell Receptor Signaling
Details: ABC-DLBCL IkBa-CBG/CBR reporter, luminescence ratio (green luciferase fused to IkBa over red control in TMD8 lymphoma cells), 4 h
How it was run: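 Compounds up to 46 uM were incubated four hours with TMD8 cells whose green CBG68 luciferase is fused to IkappaBalpha; red CBR luminescence normalised the signal, and concentration-effect curves were fitted to fusion, red and ratio data.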

[1] = measured here: CBR red luminescence, cell number
[2] = measured here: IkBa-CBG green luminescence

| SMILES | AC50 [1] | AC50 [2] |
| --- | --- | --- |
| Cc1c(NC(=S)N/N=C/c2ccc([N+](=O)[O-])cc2O)c(=O)n(-c2ccccc2)n1C | 0.355 µM [falling, partial curve, poor fit] | – |
| O=C(CCc1nnc2ccc(NCc3ccccc3Cl)nn12)NC1CCCC1 | 4.47 µM [rising, partial curve, poor fit] | – |
| CC(=O)Oc1ccc(/C=C2/CCc3ccccc3C2=O)cc1 | 10 µM [falling, partial curve] | – |
| O=C(O)C1(NS(=O)(=O)c2ccc(F)c(Cl)c2)CCCCC1 | 25.9 µM [rising, single point] | – |
| CCOC(=O)c1c(C)oc2cc(Br)c(O)c(Br)c12 | 29.1 µM [rising, single point] | – |
| O=C(c1ccc(C(F)(F)F)cc1)C1CCCN(C(=O)CN2C(=O)CSC2=O)C1 (stereo unspecified) | 17.8 µM [rising, partial curve, poor fit] | – |
| CCOc1ccc2nc(SC(C)C(N)=O)[nH]c2c1 (stereo unspecified) | 10 µM [rising, partial curve] | – |
| CCCCCCc1c(O)nc(SCC(=O)O)[nH]c1=O | 23.1 µM [falling, single point] | – |
| CN1/C(=C\C=N\NC(=O)c2ccccc2Br)C(C)(C)c2ccccc21 | 23.1 µM [falling, single point] | – |
| Cc1c(-n2c(=O)n(Cc3ccccc3)c(=O)c3[nH]cnc32)cccc1S(C)=O (stereo unspecified) | 25.1 µM [rising, single point] | – |
| C=CCOc1ccc2c(CC)cc(=O)oc2c1C | 4.11 µM [rising, full curve, poor fit] | – |
| COc1cccc(CNC(=O)C2CCN(S(=O)(=O)N3CCC4(CC3)OCCO4)CC2)c1 | 20.6 µM [rising, partial curve, poor fit] | – |
| CCOC(=O)c1c(C=O)c(C)n(Cc2ccc(C)cc2)c1C | 29.1 µM [falling, single point] | – |
| Cn1c(=O)c2c(ncn2CC(=O)NC[C@H]2O[C@@H](n3cnc4c(N)ncnc43)[C@H](O)[C@@H]2O)n(C)c1=O | 16.4 µM [rising, partial curve] | 29.1 µM [falling, single point] |
| C[C@@]12C(=O)N(CCO)CC(=O)N1[C@H](/C=C/c1ccccc1)[C@@H]1C(=O)N(c3ccccc3)C(=O)[C@@H]12 | 1.41 µM [falling, partial curve, poor fit] | – |
| CCCCC(NC(=O)Cc1c(C)c2cc3c4c(oc3cc2oc1=O)CCCC4)C(=O)O (stereo unspecified) | 35.5 µM [falling, single point] | – |
| CCOc1ccccc1NC(=O)C(CC)Sc1nc2ccsc2c(=O)n1CCC(=O)O (stereo unspecified) | 20 µM [rising, partial curve, poor fit] | – |
| COc1ccc(-c2nc3ccccn3c2NC2CCCCC2)cc1SC1CCCCC1 | 13 µM [falling, partial curve] | – |
| FC(F)Sc1ccc(NC(=S)NCC2CCCCC2)cc1 | 29.1 µM [falling, single point] | – |
| COc1ccc(Nc2nc(N3CCCCC3)nc3ccccc23)c(OC)c1 | 13 µM [rising, partial curve, poor fit] | – |
| CC1CC2=C(NC(=S)NC2c2cccc(F)c2)/C(=C/c2cccc(F)c2)C1 (stereo unspecified) | 15.8 µM [falling, single point] | – |
| COc1ccc(/C=C2/C(=O)C(C)(C(C)C)CCC2C)cc1 (stereo unspecified) | 0.708 µM [falling, partial curve, poor fit] | – |

| SMILES | AC50 [1] | AC50 [2] |
| --- | --- | --- |
| CC(=O)Nc1ccc(/C=C/c2nc(-c3ccccc3O)n[nH]2)cc1 | 1.41 µM [falling, partial curve, poor fit] | – |
| CC(C)n1cc(/C=N/Nc2ccc(C(=O)O)cc2)c2ccccc21 | – | 3.16 µM [rising, full curve, poor fit] |
| C=CCn1cccc(C(=O)Nc2ccc(OCC)cc2)c1=O | 35.5 µM [falling, single point] | – |
| CCC(=O)OC1CC(C)N(C(=O)c2ccccc2)c2ccc(C)cc21 (stereo unspecified) | 0.82 µM [rising, full curve, poor fit] | – |
| O=C(CCl)N1CCN2C(=O)c3ccccc3C12c1ccc(Cl)cc1 (stereo unspecified) | 11.2 µM [falling, partial curve] | – |
| CCc1ccc(Nc2nnc(SCC(=O)Nc3ccc(C(=O)O)cc3)s2)cc1 | 22.4 µM [falling, single point] | – |
| COc1cccc2[nH]c3c(N4CCc5ccccc5C4)ncnc3c12 | 1.58 µM [falling, full curve] | – |
| Cc1sc2ncnc(N3CCC(C(=O)Nc4ccc(F)cc4Cl)CC3)c2c1C | 14.6 µM [falling, single point] | – |
| CCc1cc(=O)oc2cc(C)cc(OC(C)C(=O)NCCN3CCOCC3)c12 (stereo unspecified) | 22.4 µM [falling, partial curve, poor fit] | – |
| O=C(/C=C\c1ccco1)Oc1cccc2cccnc12 | – | 35.5 µM [falling, single point] |
| CCc1ccc(-n2c(C)nc3cc(C(=O)NCc4cccnc4)ccc32)cc1 | 10 µM [falling, partial curve] | – |
| CN(C)S(=O)(=O)c1cccc(NC(=O)CSc2ncnc3ccccc23)c1 | 22.4 µM [falling, partial curve, poor fit] | – |
| COc1cc(OC)cc(-c2cc3nc(C)c(CCC(=O)O)c(C)n3n2)c1 | 2.31 µM [falling, full curve, poor fit] | – |
| COc1ccc(-c2cnc(SCC(=O)Nc3ccc4c(c3)OCO4)n2Cc2ccco2)cc1 | 4.11 µM [falling, full curve, poor fit] | – |
| COc1ccc(-c2csc(NC(=O)c3ccccc3C(=O)O)n2)cc1 | 25.1 µM [falling, single point] | – |
| O=C(CN1CCN(C2CCCCC2)CC1)c1ccc2cc[nH]c2c1 | 2.59 µM [falling, partial curve, poor fit] | – |
| Cc1csc(NC(=O)c2cnc3ccccc3n2)n1 | 8.91 µM [falling, partial curve, poor fit] | – |
| Nc1nn2c(-c3ccccc3)cc(=O)[nH]c2c1N=Nc1ccc(O)cc1 | 2 µM [falling, full curve] | – |
| Cc1cccc(N2C(=O)CC(SC(=Nc3ccccc3)Nc3ccccc3)C2=O)c1 (stereo unspecified) | 29.1 µM [falling, single point] | 23.1 µM [rising, partial curve, poor fit] |
| O=C1OC(c2ccc(F)cc2)=C/C1=C\c1ccc(O)cc1 | 2.82 µM [falling, full curve, poor fit] | – |
| CSc1sc(C)cc1/C=N/O | 7.31 µM [rising, partial curve] | – |
| C/C(=N\NC(=O)COc1ccc(C)cc1Br)c1cc([N+](=O)[O-])cs1 | 35.5 µM [rising, single point] | – |

Record cards (already shown). Order of values: AC50 [1] | AC50 [2]
CC(=O)Nc1ccc(/C=C/c2nc(-c3ccccc3O)n[nH]2)cc1 in the list: 1.41 µM [falling, partial curve, poor fit] | –
CSc1sc(C)cc1/C=N/O in the list: 7.31 µM [rising, partial curve] | –
CN(C)S(=O)(=O)c1cccc(NC(=O)CSc2ncnc3ccccc23)c1 in the list: 22.4 µM [falling, partial curve, poor fit] | –
C/C(=N\NC(=O)COc1ccc(C)cc1Br)c1cc([N+](=O)[O-])cs1 in the list: 35.5 µM [rising, single point] | –

Later entries

| SMILES | AC50 [1] | AC50 [2] |
| --- | --- | --- |
| c1csc(-c2nc(N3CCCCC3)no2)c1 | 7.94 µM [rising, partial curve, poor fit] | – |
| CCSc1nnc(NC(=O)c2nc(-c3ccccc3)n(-c3ccccc3)n2)s1 | 20 µM [rising, single point] | – |
| C/C(=N\Nc1cc(N2CCCCC2)nc(C)n1)c1ccc(Br)cc1 | 6.31 µM [rising, single point] | – |
| COc1ccc2[nH]cc(CCNC(=O)Nc3ccccc3C)c2c1 | 7.08 µM [falling, partial curve, poor fit] | – |
| Cc1ccc(C(=O)OCc2nnc(-c3ccccc3)o2)s1 | 29.1 µM [rising, single point] | – |
| Cc1cccc(NC(=O)C(C)Oc2ccc(C)nc2[N+](=O)[O-])c1 (stereo unspecified) | 16.4 µM [rising, partial curve] | – |
| CCOC(=O)Cc1csc(NC(=S)NC(=O)c2ccccc2)n1 | – | 29.1 µM [falling, partial curve, poor fit] |
| OCCCCNCc1ccc(OCc2ccc(Cl)cc2)cc1 | 35.5 µM [falling, single point] | – |
| Cc1c(C(=O)N2CCOCC2)[nH]c2c1C(=O)CC(c1ccc(Cl)cc1)C2 (stereo unspecified) | 8.91 µM [falling, partial curve, poor fit] | – |
| CN(C(=O)COc1ccccc1C(=O)NCCOc1ccccc1)c1ccccc1 | 16.4 µM [falling, single point] | – |
| Cc1ccc(COc2ccccc2C(=S)N2CCCC2)cc1 | 35.5 µM [rising, single point] | – |
| Cc1ccc(N(C(=O)c2ccc(S(=O)(=O)N3CCOCC3)cc2)C2C=CS(=O)(=O)C2)cc1 (stereo unspecified) | 1.16 µM [falling, full curve, poor fit] | – |
| O=C(OCc1cc([N+](=O)[O-])cc2c1OCOC2)c1ccccn1 | 31.6 µM [rising, single point] | – |
| Cc1cccc(C)c1-n1c(C)cc(/C=N/NC(N)=S)c1C | – | 32.6 µM [falling, partial curve, poor fit] |
| N#Cc1c(Cn2cncn2)nc(=O)n(-c2ccc(Cl)cc2)c1N | 8.91 µM [rising, partial curve] | – |
| CCCS(=O)(=O)n1nc(-c2ccc(C)cc2)cc1N | 29.1 µM [rising, single point] | – |
| O=C(CCl)N1CCN(C(=O)C2COc3ccccc3O2)CC1 (stereo unspecified) | 18.4 µM [falling, single point] | – |
| Cc1ccc(NC(=O)c2cc(-c3ccc4c(c3)OCO4)on2)cc1 | 20 µM [falling, partial curve, poor fit] | – |
| Cc1cc(Cl)ccc1OCCCC(=O)N1CCCc2ccccc21 | 2.06 µM [rising, partial curve, poor fit] | – |
| O=C(COC(=O)c1ccccc1NC(=O)c1ccco1)NCCC1=CCCCC1 | 25.9 µM [falling, single point] | – |
